According to patent US10968190B2, “Processes for preparing oxathiazin-like compounds” (GEISTLICH PHARMA AG, priority 2014, dated 2021):
Some results were stated once for a whole list of compounds, not compound by compound. For at least one compound, name, drawing or mass did not settle the structure.

Tested on: cancer stem cells (CSC) derived from four glioblastoma patients
Assay: Cytotoxicity in cancer stem cells from glioblastoma patients
Format: cell-based
Conditions: human CSCs vs bulk cells
Experimental: Tissue samples from high grade gliomas WHO grade IV from newly diagnosed patients (medium age of 54±10 years) were minced mechanically, digested enzymatically and the dissociated cells were filtered. The isolated tumor cells were cultured as bulk cells. Cancer Stem Cells (CSCs) were isolated by the formation of neurospheres under neurosphere conditions (using neurobasal medium) from the murine SMA 560 glioma cell line or from freshly isolated human glioblastoma cells.
The number of remaining adherent cells were stained (crystal violet or Alamar Blue) and quantified by absorbance measurements (540 nm). Cell survival was expressed as the percentage of cells surviving relative to the number of cells surviving in untreated control cultures. The results are given as % killing rate or EC50 as the dose required for half-maximal cytotoxicity. Results
CSCs were isolated from glioblastoma tissue resected from four patients. […].

O=S1(=O)CCNCN1 [taurultam] was tested, and the “sensitivity of human CSCs versus human glioblastoma bulk cells” value was 3 to 4 fold.
